These are yes or no findings as the source states them, for the method shown. Binding seen in cells or lysates may run through a third protein. Binding calls can cover weak binding; strength is not graded here.
What was measured:
[1] = molecular target: eGFP-TOPBP1 BRCT 0-3 (C-terminal truncation mutant) (human); assay: co-IP; GFP-Trap agarose from benzonase-treated whole-cell lysates of transfected HEK293TN cells (nocodazole 100 ng/ml 18 h; in some panels asynchronous cells or 7 µM RO-3306 for 30 min); 200 mM NaCl, 0.2% Igepal, pH 7.5, 4 °C; western blot
[2] = molecular target: eGFP-TOPBP1 BRCT 0-2 (C-terminal truncation mutant) (human); assay: as above

| Binder | binding [1] | binding [2] |
| --- | --- | --- |
| MUS81 (endogenous) (protein, UniProt Q96NY9 1-551) MAAPVRLGRKRPLPACPNPLFVRWLTEWRDEATRSRRRTRFVFQKALRSLRRYPLPLRSGKEAKILQHFGDGLCRMLDERLQRHRTSGGDHAPDSPSGENSPAPQGRLAEVQDSSMPVPAQPKAGGSGSYWPARHSGARVILLVLYREHLNPNGHHFLTKEELLQRCAQKSPRVAPGSARPWPALRSLLHRNLVLRTHQPARYSLTPEGLELAQKLAESEGLSLLNVGIGPKEPPGEETAVPGAASAELASEAGVQQQPLELRPGEYRVLLCVDIGETRGGGHRPELLRELQRLHVTHTVRKLHVGDFVWVAQETNPRDPANPGELVLDHIVERKRLDDLCSSIIDGRFREQKFRLKRCGLERRVYLVEEHGSVHNLSLPESTLLQAVTNTQVIDGFFVKRTADIKESAAYLALLTRGLQRLYQGHTLRSRPWGTPGNPESGAMTSPNPLCSLLTFSDFNAGAIKNKAQSVREVFARQLMQVRGVSGEKAAALVDRYSTPASLLAAYDACATPKEQETLLSTIKCGRLQRNLGPALSRTLSQLYCSYGPLT | binds | binds |
| ERCC1 (endogenous) (protein, UniProt P07992 1-297) MDPGKDKEGVPQPSGPPARKKFVIPLDEDEVPPGVAKPLFRSTQSLPTVDTSAQAAPQTYAEYAISQPLEGAGATCPTGSEPLAGETPNQALKPGAKSNSIIVSPRQRGNPVLKFVRNVPWEFGDVIPDYVLGQSTCALFLSLRYHNLHPDYIHGRLQSLGKNFALRVLLVQVDVKDPQQALKELAKMCILADCTLILAWSPEEAGRYLETYKAYEQKPADLLMEKLEQDFVSRVTECLTTVKSVNKTDSQTLLTTFGSLEQLIAASREDLALCPGLGPQKARRLFDVLHEPFLKVP | binds | binds |

From PMC12661054, “The CIP2A-TOPBP1 axis facilitates mitotic DNA repair via MiDAS and MMEJ” (Nature Communications, 2025)
